The target in the test is T1, GST‐TPD52 (UniProt P55327).
T1 sequence: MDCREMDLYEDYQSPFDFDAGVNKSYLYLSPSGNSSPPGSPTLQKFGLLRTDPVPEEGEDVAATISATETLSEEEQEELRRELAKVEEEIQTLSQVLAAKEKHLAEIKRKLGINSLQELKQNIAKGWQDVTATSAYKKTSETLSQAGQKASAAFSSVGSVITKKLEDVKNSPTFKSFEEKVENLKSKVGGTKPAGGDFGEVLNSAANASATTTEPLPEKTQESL
Briefly: pull-down; GST pull-down in vitro: GST-TPD52 with His-tagged AMPK subunits or AMPKα1 kinase domain, all purified from E. coli (Figure 1B, 1D); both purified.

Amino acid sequences for entries named in this document (tags omitted).
UniProt P54619: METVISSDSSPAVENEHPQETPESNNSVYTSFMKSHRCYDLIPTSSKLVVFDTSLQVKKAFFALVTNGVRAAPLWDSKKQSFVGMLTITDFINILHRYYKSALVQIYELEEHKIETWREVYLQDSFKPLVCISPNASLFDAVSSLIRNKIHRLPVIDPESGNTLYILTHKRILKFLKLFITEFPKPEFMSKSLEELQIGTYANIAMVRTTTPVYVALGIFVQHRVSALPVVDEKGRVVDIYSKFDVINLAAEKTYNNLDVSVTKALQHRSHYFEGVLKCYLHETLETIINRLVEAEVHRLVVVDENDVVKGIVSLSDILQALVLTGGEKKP

Results are given in words; binding and its absence hold for the method and conditions named. Where a sequence is shown, tags or fusion partners need not be part of it.

As for “His‐tagged AMPKγ1 (from UniProt P54619 1-331)”, the binding entry was “no binding”.

These data come from PMC9844640.
